In patent US20110251090A1:
No constants are given. Whether binding was seen depends on the method and setting. In cells and extracts the contact can be indirect. Some entries that bind do so weakly or less than the wild type. Where a sequence is shown, tags or fusion partners need not be part of it.

The chains behind the UniProt entries cited, without tags or fusion partners.
UniProt Q8IZL8: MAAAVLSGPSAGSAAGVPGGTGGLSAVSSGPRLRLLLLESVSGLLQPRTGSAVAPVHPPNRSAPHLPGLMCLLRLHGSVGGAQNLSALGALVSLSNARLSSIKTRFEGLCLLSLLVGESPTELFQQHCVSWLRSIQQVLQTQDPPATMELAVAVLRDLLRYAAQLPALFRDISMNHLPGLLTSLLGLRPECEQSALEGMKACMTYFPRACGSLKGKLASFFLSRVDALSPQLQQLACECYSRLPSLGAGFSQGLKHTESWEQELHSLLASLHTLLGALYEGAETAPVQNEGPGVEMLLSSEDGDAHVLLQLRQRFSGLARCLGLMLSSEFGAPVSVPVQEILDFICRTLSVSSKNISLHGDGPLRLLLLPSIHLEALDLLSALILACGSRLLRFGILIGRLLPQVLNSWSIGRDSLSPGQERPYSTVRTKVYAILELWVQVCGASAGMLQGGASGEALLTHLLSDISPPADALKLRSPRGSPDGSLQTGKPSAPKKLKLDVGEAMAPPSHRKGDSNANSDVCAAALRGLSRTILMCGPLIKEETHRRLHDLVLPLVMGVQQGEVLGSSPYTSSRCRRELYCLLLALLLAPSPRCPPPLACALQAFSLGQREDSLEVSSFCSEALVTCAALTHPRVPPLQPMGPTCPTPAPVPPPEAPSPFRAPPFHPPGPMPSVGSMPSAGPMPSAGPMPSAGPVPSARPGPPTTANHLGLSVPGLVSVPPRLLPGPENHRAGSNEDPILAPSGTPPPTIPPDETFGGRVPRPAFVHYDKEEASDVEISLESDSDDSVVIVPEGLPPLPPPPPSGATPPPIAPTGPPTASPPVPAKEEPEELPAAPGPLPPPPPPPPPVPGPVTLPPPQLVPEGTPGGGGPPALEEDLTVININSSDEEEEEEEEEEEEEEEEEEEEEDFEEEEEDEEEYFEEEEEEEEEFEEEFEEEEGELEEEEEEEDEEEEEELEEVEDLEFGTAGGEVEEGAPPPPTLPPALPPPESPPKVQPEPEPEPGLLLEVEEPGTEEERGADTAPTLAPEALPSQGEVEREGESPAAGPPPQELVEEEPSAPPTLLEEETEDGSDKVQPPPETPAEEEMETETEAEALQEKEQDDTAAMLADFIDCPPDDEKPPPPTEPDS

Target: PELP1-HA (human) (UniProt Q8IZL8)
Test: co-immunoprecipitation from co-transfected COS-7 cells, western blot with anti-Flag antibody (FIG. 8A right)

binding: binds
B1: LAS1L-Flag (protein, not shown: small tags and cut ends)
chain: MSWESGAGPGLGSQGMDLVWSAWYGKCVKGKGSLPLSAHGIVVAWLSRAEWDQVTVYLFCDDHKLQRYALNRITVWRSRSGNELPLAVASTADLIRCKLLDVTGGLGTDELRLLYGMALVRFVNLISERKTKFAKVPLKCLAQEVNIPDWIVDLRHELTHKKMPHINDCRRGCYFVLDWLQKTYWCRQLENSLRETWELEEFREGIEEEDQEEDKNIVVDDITEQKPEPQDDGKSTESDVKADGDSKGSEEVDSHCKKALSHKELYERARELLVSYEEEQFTVLEKFRYLPKAIKAWNNPSPRVECVLAELKGVTCENREAVLDAFLDDGFLVPTFEQLAALQIEYEDGQTEVQRGEGTDPKSHKNVDLNDVLVPKPFSQFWQPLLRGLHSQNFTQALLERMLSELPALGISGIRPTYILRWTVELIVANTKTGRNARRFSAGQWEARRGWRLFNCSASLDWPRMVESCLGSPCWASPQLLRIIFKAMGQGLPDEEQEKLLRICSIYTQSGENSLVQEGSEASPIGKSPYTLDSLYWSVKPASSSFGSEAKAQQQEEQGSVNDVKEEEKEEKEVLPDQVEEEEENDDQEEEEEDEDDEDDEEEDRMEVGPFSTGQESPTAENARLLAQKRGALQGSAWQVSSEDVRWDTFPLGRMPGQTEDPAELMLENYDTMYLLDQPVLEQRLEPSTCKTDTLGLSCGVGSGNCSNSSSSNFEGLLWSQGQLHGLKTGLQLF
